Measured data: PubChem BioAssay AID743454 (Peter MacCallum Cancer Centre, 2014)
The whole screen tested about 18,000 reagents; below is an unselected part. 450 of all reagents (2.5%) were called active. 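Single biological run; no consistent viability z cut-off exists, so the class columns, not z-scores, define the calls.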 The numbers tell different reagents against one gene apart.

Screen: 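Knock-downs lowering viability or raising caspase 3/7 activity in vorinostat-treated resistant cells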 (primary screen)
Cells: human HCT116-VR colon cancer cells, selected for vorinostat resistance
Knock-down reagent: siRNA pool against human genes, 40 nM siRNA pool
Duration: vorinostat for 24 h, read-out about 72 h after transfection
Treatment: vorinostat at 2.5 µM final
Detection: 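Two measures, CellTiter-Fluor viability and luminescent caspase 3/7 activity, each as fold change against same-plate mock wells, mean of duplicates, then screen-wide robust z-score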
Reading the numbers: viability robust z-score: higher = more viable cells than screen typical; caspase robust z-score: higher = more caspase 3/7 activity than screen typical
Active means: 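a knock-down is a hit when classed RV1 or RV2 for lowered viability, or CA1 or CA2 for caspase activation; those lethal without drug were dropped; hits were retested singly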

Silencing of DENND1B #1 resulted in: viability hit class no change; caspase hit class no change; viability robust z-score -0.38; caspase robust z-score 1.34; inactive.
DENND1B #2 showed viability hit class no change; caspase hit class no change; viability robust z-score -0.4; caspase robust z-score 1.13; inactive.
Knock-down of VCPKMT resulted in: viability hit class no change; caspase hit class no change; viability robust z-score -0.36; caspase robust z-score 1.81; inactive.
For MGRN1, the entry reads viability hit class no change; caspase hit class no change; viability robust z-score -0.16; caspase robust z-score -0.6; inactive.
With knock-down of UNC13B, the record shows viability hit class no change; caspase hit class no change; viability robust z-score -0.8; caspase robust z-score 1.21; inactive.
TMEM174 scored viability hit class no change; caspase hit class no change; viability robust z-score 0.4; caspase robust z-score -0.16; inactive.
THBD showed viability hit class no change; caspase hit class no change; viability robust z-score -0.22; caspase robust z-score -0.38; inactive.
Against LPAR3 the deposit lists viability hit class no change; caspase hit class no change; viability robust z-score -2.21; caspase robust z-score 1.23; inactive.

2 entries from above in another layout:
{"gene": "DENND1B", "reagent no.": 1, "viability hit class": "no change", "caspase hit class": "no change", "viability robust z-score": -0.38, "caspase robust z-score": 1.34, "outcome": "inactive"}
{"gene": "DENND1B", "reagent no.": 2, "viability hit class": "no change", "caspase hit class": "no change", "viability robust z-score": -0.4, "caspase robust z-score": 1.13, "outcome": "inactive"}

Next results follow:
After knock-down of LGALS14, the record shows viability hit class no change; caspase hit class no change; viability robust z-score 0.26; caspase robust z-score -0.36; inactive.
With knock-down of ZNF641, the screen gave viability hit class no change; caspase hit class no change; viability robust z-score 0.78; caspase robust z-score 2.32; inactive.
With knock-down of TUBB2B, the screen gave viability hit class no change; caspase hit class no change; viability robust z-score -0.3; caspase robust z-score 1.14; inactive.
For LARP1B the deposit lists viability hit class no change; caspase hit class no change; viability robust z-score 0.81; caspase robust z-score -0.74; inactive.
Depletion of AEBP1 resulted in: viability hit class no change; caspase hit class no change; viability robust z-score 0.84; caspase robust z-score -0.24; inactive.
For C16orf78 the deposit lists viability hit class no change; caspase hit class no change; viability robust z-score -0.87; caspase robust z-score -1.1; inactive.
Depletion of C5AR1 came out at: viability hit class no change; caspase hit class no change; viability robust z-score 0.4; caspase robust z-score -0.08; inactive.
Against TMEM71, the values are viability hit class no change; caspase hit class no change; viability robust z-score -0.48; caspase robust z-score -0.24; inactive.
With knock-down of KPNA1 the results were viability hit class no change; caspase hit class no change; viability robust z-score 0.9; caspase robust z-score -0.28; inactive.
With knock-down of CDC73 the results were viability hit class no change; caspase hit class no change; viability robust z-score -0.86; caspase robust z-score 2.82; inactive.
Silencing of C9orf153 gave: viability hit class no change; caspase hit class no change; viability robust z-score 1.73; caspase robust z-score -0.03; inactive.
Depletion of PCDH1 resulted in: viability hit class no change; caspase hit class no change; viability robust z-score 0.19; caspase robust z-score -0.4; inactive.
CSTL1 gave viability hit class no change; caspase hit class no change; viability robust z-score 0.74; caspase robust z-score -1.06; inactive.
